The other results are listed elsewhere or left out. These are raw signals, not scaled to a control.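 Primary screen: polymyxin B was added at a level permeabilizing Salmonella outer membranes while sparing inner membranes. DMSO wells, both with and without polymyxin B, established maximum growth. Plate-to-plate variation meant each plate was ranked on its own, and the lowest-OD600 compounds were selected as hits.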
Test system: Salmonella enterica serovar Typhimurium SL1344
Assay: bacterial growth OD600 after 18 h with compound and polymyxin B; higher = more bacterial growth (less inhibition)
Conditions: 50 µM, Mueller-Hinton broth

SMILES	bacterial growth OD600 (polymyxin B 1 µg/mL)	bacterial growth OD600 (polymyxin B 0.75 µg/mL)
c1cncc(COC2CCN(c3nc4nonc4nc3NC3CCCC3)CC2)c1	0.867	–
Cc1cc(C(=O)N2CCC(C3CCN(Cc4cccnc4)CC3)C2)c(C)o1 (stereo unspecified)	–	0.839
CSc1ccccc1C(=O)NCc1c(C)ncc2c1CCN(C(=O)CCC(=O)c1ccccc1)C2	–	0.827
O=C1N(Cc2cccc(F)c2F)CCCC1(O)CNC1CCC1 (stereo unspecified)	–	0.978
COCC(=O)Nc1cc(C(=O)NC(C)Cc2ccccn2)c2c(c1)ncn2Cc1ccc(F)cc1 (stereo unspecified)	–	0.82
CC(C)=CCN1CCN(Cc2c(C)n(C)n(-c3ccccc3)c2=O)CC1CCO (stereo unspecified)	0.892	–
CN(CCc1ccccn1)Cc1ccc2c(c1)CN(Cc1cccc3nccnc13)CCO2	–	0.916
Cc1cc(-c2ccnc(-n3ncc(C(=O)N4CCN(c5ccc(O)cc5)CC4)c3C)n2)c(C)s1	–	0.731
C/C=C(\C)CN1CCC(Oc2cc(Cl)ccc2C(=O)N2CCCCC2)CC1	0.871	–
CCCNC(=O)NC1CCCc2nc(-c3cccnc3)ncc21 (stereo unspecified)	0.966	–
CCCC(=O)NCc1cccnc1Oc1ccccc1OC	–	0.811
CN(CC1COCCO1)C(=O)c1cc(COc2ccccc2)[nH]n1 (stereo unspecified)	0.892	–
COc1ccc(NC2CCCN(C(=O)COc3ccc(C)cc3)C2)cc1 (stereo unspecified)	0.872	–
CC(Cc1cccnc1)NC(=O)c1csc2nc(-c3ccc(Cl)cc3)cn12 (stereo unspecified)	0.048	–
COCCNC(=O)c1ccc(OC2CCN(Cc3ccccc3OC)CC2)c(Cl)c1	0.034	–
COC(=O)c1ccc(CNC2CCN(c3ccc(C(=O)N4CCc5ccccc5C4)cc3)CC2)cc1	–	0.761

SMILES	bacterial growth OD600 (polymyxin B 1 µg/mL)	bacterial growth OD600 (polymyxin B 0.75 µg/mL)
CCCN1CCC(N2CCCC(C(=O)Nc3ccc(-c4cccc(OC)c4)cc3)C2)CC1 (stereo unspecified)	–	0.55
COCCNC1CCCN(c2nc(C)c3cc(F)ccc3n2)CC1 (stereo unspecified)	–	0.831
CC1CCN(c2ccc(C(=O)N3CCCN(c4ncccn4)CC3)cn2)CC1	–	0.779
Cc1cnccc1CNC(=O)C1(N(C)CCc2ccccc2)Cc2ccccc2C1	–	0
CCCOC1CCCN(c2ccc(C(=O)N(CC)Cc3nccn3C)cn2)C1 (stereo unspecified)	–	0.801
COc1ccc(CCN2C(=O)O[C@@H]3CN(c4nc(C)cc(C)n4)C[C@@H]32)cc1	–	0.823
O=C(c1ccc(N2CCC(O)CC2)nc1)N1CCCC(c2ccccc2)CC1 (stereo unspecified)	–	0.743
COc1ccc(CN(C)CC2CCCN(CCc3ccccc3C)C2)cc1OC (stereo unspecified)	0.732	–
O=C(Cc1ccsc1)NC1CC(=O)N(CCCc2ccccc2)C1 (stereo unspecified)	1.07	–
CCCOC1CCCN(Cc2nc(-c3cccc(Cl)c3)no2)C1 (stereo unspecified)	0.883	–
O=C(Nc1cccc(-c2ccc(F)cc2)c1)C1CCCN(C(=O)c2cccnc2)C1 (stereo unspecified)	0.909	–
O=C(c1cccs1)N1CCOc2ccc(CN3CCN(c4ccccc4)CC3)cc2C1	–	0.746
O=C(CCc1cn[nH]c1)N1CCC(C2CCN(c3ncccn3)CC2)C1 (stereo unspecified)	–	0.848
O=C(Cc1ccccc1)Nc1nc2c(s1)C(=O)CC(C(=O)NCC1COc3ccccc3O1)C2 (stereo unspecified)	–	0.639
COc1ccc(F)c(CC2(CCC(=O)N3CCN(Cc4ncccc4C)CC3)CCC(=O)N2)c1 (stereo unspecified)	–	0.829

Ordered by count of non-hydrogen atoms (ascending): eight of the compounds above
SMILES	bacterial growth OD600 (polymyxin B 1 µg/mL)	bacterial growth OD600 (polymyxin B 0.75 µg/mL)
O=C(Cc1ccsc1)NC1CC(=O)N(CCCc2ccccc2)C1 (stereo unspecified)	1.07	–
O=C(CCc1cn[nH]c1)N1CCC(C2CCN(c3ncccn3)CC2)C1 (stereo unspecified)	–	0.848
COc1ccc(CCN2C(=O)O[C@@H]3CN(c4nc(C)cc(C)n4)C[C@@H]32)cc1	–	0.823
CC1CCN(c2ccc(C(=O)N3CCCN(c4ncccn4)CC3)cn2)CC1	–	0.779
COc1ccc(CN(C)CC2CCCN(CCc3ccccc3C)C2)cc1OC (stereo unspecified)	0.732	–
Cc1cnccc1CNC(=O)C1(N(C)CCc2ccccc2)Cc2ccccc2C1	–	0
CCCN1CCC(N2CCCC(C(=O)Nc3ccc(-c4cccc(OC)c4)cc3)C2)CC1 (stereo unspecified)	–	0.55
O=C(Cc1ccccc1)Nc1nc2c(s1)C(=O)CC(C(=O)NCC1COc3ccccc3O1)C2 (stereo unspecified)	–	0.639
